This is one part of the list. Shown are side measurements of this screen, not its main read-out; they come without a call. The list favours compounds with an active or inconclusive main result. Words in brackets tell the shape of the fitted curve; partial curves, single points and poor fits give uncertain potencies.

The experiment in a line: qHTS Assay for Lipid Storage Modulators in Drosophila S3 Cells.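 On cell number change: cells counted by Cell Tracker Red CMTPX staining in the red channel.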 The note with it: BODIPY lipid droplet fluorescence, 18-24 h; for cell number change: measured here: cell count max response, cells fed with added oleic acid. In short, it runs like this: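 Drosophila S3 cells got compounds at several concentrations plus oleic acid (400 uM solution). Laser-scanning cytometry with 488 nm excitation read lipid droplets at 500-530 nm and cells at 575-640 nm. Percent activity was relative to 20 uM Triacsin C.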

Where [1] appears, read: measured here: lipid fluorescence (Fed channel) AC50, cells fed with added oleic acid.
[2] abbreviates: measured here: cell number channel AC50, cells fed with added oleic acid.

With `CC1CC(C)(C)CC2(C1)NC(=O)N(CC(=O)OCc1ccc(Br)cc1)C2=O` (stereo not given), the cell number change is -11.7%. Moreover, under setting [1], the half-maximal activity concentration (AC50) is 29.1 µM [rising, single point].
As to `CSc1nnc(Cc2ccc3c(c2)OCO3)o1`, the cell number change stood at 4.39%. For the same molecule, the AC50 under setting [1] is 6.51 µM [rising, single point].
As for `COc1cnc(N(C)C)nc1Sc1ccc(Cl)cc1`, the cell number change was -30.8%. Besides, the AC50 under setting [2] was 29.1 µM [falling, single point]. For the same molecule, the half-maximal activity concentration (AC50) under setting [1] was 32.6 µM [falling, single point].
Consider `O=[N+]([O-])c1ccc(/C=N/N/C(=N/c2ccccn2)c2ccccn2)cc1`, for which the cell number change amounted to 13.8%. Under setting [2], the AC50 is 0.00461 µM [falling, full curve, poor fit].
Regarding `CSc1nc(N(C)NC(=O)c2ccc(Cl)cc2)c2ccccc2n1`, the cell number change is 7.17%. Also, under setting [1], the AC50 is 0.092 µM [rising, full curve, poor fit].
In the case of `COc1ccccc1NC(=S)NCc1ccccc1`, the cell number change was determined as 9.12%.
Regarding `O=C(COC(=O)C1COc2ccccc2O1)NC1CCS(=O)(=O)C1` (stereo not given), the cell number change was -18.9%. Under setting [2], the AC50 was 6.51 µM [falling, single point]. Also, under setting [1], the concentration at half-maximal activity (AC50) was 3.26 µM [falling, full curve].
Take `COc1ccc(S(=O)(=O)/C(C#N)=C/Nc2cccc(OC)c2)cc1`: the cell number change came out at 14.1%. The AC50 under setting [1] is 4.61 µM [falling, single point].
For `CN(Cc1ccc(Cl)c(Cl)c1)C(=O)C1CSC2(C)CCC(=O)N12` (stereo not given), the cell number change is -2.61%. Besides, the AC50 under setting [2] was 2.31 µM [rising, single point]. Moreover, the AC50 under setting [1] is 3.26 µM [rising, single point].
Consider `CCCNC(=O)Cn1cccc1C(=O)c1ccccc1`, for which the cell number change is 4.14%. Further, the half-maximal activity concentration (AC50) under setting [1] is 6.51 µM [falling, single point].
Consider `COc1ccc(NS(=O)(=O)c2c(C)n(C)c(=O)n(C)c2=O)cc1`, for which the cell number change worked out at 26.8%. The concentration at half-maximal activity (AC50) under setting [1] was 0.58 µM [rising, full curve].
On to `COc1ccccc1Nc1nc(Cl)c(C=O)s1`, for which the cell number change amounted to 49.8%. In addition, the half-maximal activity concentration (AC50) under setting [2] was 29.1 µM [rising, single point].
Take `Cc1ccc(C)c(NC(=O)COC(=O)c2cccc(S(=O)(=O)N3CCCCC3)c2)c1`: the cell number change is -1.6%.
Regarding `COc1ccc(C(CNC(=O)CCNS(=O)(=O)c2ccc(Br)cc2)N2CCCC2)cc1` (stereo not given), the cell number change is -10.7%.
On the same count and under the same terms, next, `O=C(C1CCN(S(=O)(=O)N2CCC3(CC2)OCCO3)CC1)N1CCOCC1`: 15.5%.
In the case of `COc1ccc(-c2oc3ccc(-c4cc(OC)c(OC)c(OC)c4)cc3c2C#Cc2ccsc2)cc1`, the cell number change stood at 58.3%. Besides, under setting [2], the AC50 was 25.9 µM [rising, partial curve].
With `Clc1ccc(OCc2nn3c(C4CCCCC4)nnc3s2)c(Cl)c1`, the cell number change is 79%. Moreover, the concentration at half-maximal activity (AC50) under setting [2] was 23.1 µM [rising, partial curve].
As for `COc1ccc(-c2csc(NC(=O)c3ccc(S(C)(=O)=O)cc3)n2)cc1`, the cell number change worked out at 14.2%. For the same molecule, under setting [1], the AC50 is 0.0103 µM [rising, full curve, poor fit].
Turning to `Cn1c(=O)c2c(SCc3c(F)cccc3Cl)nc(CC(C)(C)C)nc2n(C)c1=O`, the cell number change came out at 31.1%. Moreover, the concentration at half-maximal activity (AC50) under setting [2] is 2.59 µM [rising, full curve].
As for `CCN1C(=O)c2cccc3c(S(=O)(=O)NCCc4c[nH]c5ccccc45)ccc1c23`, the AC50 under setting [1] was 6.51 µM [rising, single point].
Regarding `CC(=O)Nc1ccc(S(=O)(=O)N2CCN(c3ncccn3)CC2)cc1`, the cell number change worked out at 0.293%. The half-maximal activity concentration (AC50) under setting [1] is 0.0651 µM [rising, full curve, poor fit].
Consider `COc1cc2cc(CN(Cc3cccs3)C(=S)Nc3cccc(C)c3)c(=O)[nH]c2cc1OC`, for which the cell number change is 12.2%. Besides, the AC50 under setting [1] is 5.8 µM [rising, partial curve].
`COc1ccc(SC[C@H](C)CN2CC[C@H](C(C)(C)C)CCC2=O)cc1`: the cell number change was -27.4%. The concentration at half-maximal activity (AC50) under setting [2] is 0.092 µM [falling, full curve, poor fit]. For the same molecule, the half-maximal activity concentration (AC50) under setting [1] was 0.259 µM [falling, full curve, poor fit].
Consider `N#Cc1ccc(NC(=O)CCc2ccc(S(=O)(=O)N3CCOCC3)cc2)cc1`, for which the cell number change turned out to be 7.98%. The AC50 under setting [2] is 0.00461 µM [rising, full curve, poor fit].
For the molecule `Cc1cccc(C)c1NC(=O)/C(C#N)=C/c1ccsc1`, the cell number change is -18.1%. Moreover, the half-maximal activity concentration (AC50) under setting [1] was 18.4 µM [falling, single point].
For `CN1C(=O)/C(=C/c2ccccc2OCc2ccc(C(=O)O)cc2)NC1=S`, the cell number change was -40.7%.
Still for that read-out and setting: next, `COc1ccccc1C(CNC(=O)C(CCSC)NS(=O)(=O)c1ccccc1F)N1CCCC1` (stereo not given): -9.19%; `COC(=O)C1=C(C)NC(=S)NC1c1ccc(OCC(=O)N2CCCCC2)c(OC)c1` (stereo not given): -0.587%.
For `Cc1ccc(C(C)C)c(OCCCn2ccnc2C)c1`, the cell number change came out at 3.23%. Further, the AC50 under setting [1] was 29.1 µM [rising, single point].
Regarding `CCN1CCN(Cc2c(OC)ccc3ccccc23)CC1`, the cell number change was -33.6%. The half-maximal activity concentration (AC50) under setting [2] was 0.461 µM [falling, full curve, poor fit]. Besides, under setting [1], the AC50 was 7.31 µM [falling, partial curve, poor fit].
On to `CC(C)(C)OC(=O)N1CCN(C(=O)c2nc[nH]c2C(=O)N2CCN(C(=O)OC(C)(C)C)CC2)CC1`, for which the cell number change amounted to 8.1%. Also, the AC50 under setting [1] was 0.326 µM [rising, full curve, poor fit].
With `NCC(O)CN(c1ccccc1)c1ccccc1` (stereo not given), the cell number change is -28.4%. Moreover, under setting [1], the AC50 was 29.1 µM [falling, single point].
As to `CN(C)c1ccc(CN2CCCCC2)cc1`, the AC50 under setting [1] is 0.651 µM [falling, full curve, poor fit].
As to `COc1ccc(NC2CCCN(C(=O)c3ccc(CSC)o3)C2)cc1OC` (stereo not given), the cell number change is -32.5%. Further, the AC50 under setting [2] is 8.2 µM [falling, partial curve].
As to `CC(Sc1nnc(COc2ccc(Cl)cc2)n1Cc1ccco1)C(=O)N1CCNC1=O` (stereo not given), the cell number change was -6.48%. The concentration at half-maximal activity (AC50) under setting [1] was 18.4 µM [rising, single point].
On to `COc1cc(CC(=O)NC(c2ccccc2)c2ccccc2)cc(OC)c1OC`, for which the cell number change was 11.7%. In addition, under setting [1], the AC50 is 1.46 µM [rising, full curve].
Regarding `Cc1cc(NC(=O)CCC(=O)N(Cc2ccco2)C(C(=O)NC2CCCC2)c2ccc(F)cc2)no1` (stereo not given), the cell number change is 0.435%. Besides, the AC50 under setting [1] was 6.51 µM [rising, single point].
Turning to `Cc1cc(OCC(=O)N2CCN(c3ncccn3)CC2)ccc1Cl`, the cell number change was 22.8%. The half-maximal activity concentration (AC50) under setting [2] is 0.259 µM [rising, partial curve, poor fit].
In the case of `COc1ccc(/C=N/NC(=O)c2nn(-c3ccc(Cl)cc3)c(=O)c3c(N)scc23)cc1`, the cell number change amounted to 44.5%.
`Clc1ccc(-c2c[n+](Cc3ccc(Br)cc3)c3n2CCCCC3)cc1`: the cell number change is -27.2%. Further, under setting [1], the AC50 is 18.4 µM [falling, single point].

The record behind these values is PubChem BioAssay AID2685 (National Center for Advancing Translational Sciences (NCATS), 2010).
